# Test results: the supplement of paper PMC12067093, “Discovery and optimisation of a covalent ligand for TRIM25 and its application to targeted protein ubiquitination” (Chemical Science, 2025)
# Chains of the proteins cited; added tags and fusions are not shown. Lines headed by an entry give the natural chain unless they say otherwise; changes in a name come on top.
# UniProt P41250: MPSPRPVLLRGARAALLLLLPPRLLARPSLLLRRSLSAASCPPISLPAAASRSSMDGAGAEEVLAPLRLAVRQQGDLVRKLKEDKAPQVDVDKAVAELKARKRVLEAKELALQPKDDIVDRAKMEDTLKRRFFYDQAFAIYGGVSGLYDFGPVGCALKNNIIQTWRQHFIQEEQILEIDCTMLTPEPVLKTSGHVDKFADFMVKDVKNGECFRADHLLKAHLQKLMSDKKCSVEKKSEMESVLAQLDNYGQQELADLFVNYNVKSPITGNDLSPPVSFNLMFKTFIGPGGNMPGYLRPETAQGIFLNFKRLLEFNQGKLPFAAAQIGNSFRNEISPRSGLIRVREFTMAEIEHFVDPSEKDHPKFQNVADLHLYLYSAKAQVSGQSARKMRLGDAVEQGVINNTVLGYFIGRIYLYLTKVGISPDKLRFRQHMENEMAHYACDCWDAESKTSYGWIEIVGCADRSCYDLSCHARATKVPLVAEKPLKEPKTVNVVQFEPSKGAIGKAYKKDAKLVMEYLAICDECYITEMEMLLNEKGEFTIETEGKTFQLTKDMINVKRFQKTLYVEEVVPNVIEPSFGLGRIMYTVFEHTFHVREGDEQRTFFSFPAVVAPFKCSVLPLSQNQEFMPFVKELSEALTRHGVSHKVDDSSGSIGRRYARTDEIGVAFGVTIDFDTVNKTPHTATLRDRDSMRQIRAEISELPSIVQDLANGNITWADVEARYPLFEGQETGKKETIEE
# UniProt Q14161: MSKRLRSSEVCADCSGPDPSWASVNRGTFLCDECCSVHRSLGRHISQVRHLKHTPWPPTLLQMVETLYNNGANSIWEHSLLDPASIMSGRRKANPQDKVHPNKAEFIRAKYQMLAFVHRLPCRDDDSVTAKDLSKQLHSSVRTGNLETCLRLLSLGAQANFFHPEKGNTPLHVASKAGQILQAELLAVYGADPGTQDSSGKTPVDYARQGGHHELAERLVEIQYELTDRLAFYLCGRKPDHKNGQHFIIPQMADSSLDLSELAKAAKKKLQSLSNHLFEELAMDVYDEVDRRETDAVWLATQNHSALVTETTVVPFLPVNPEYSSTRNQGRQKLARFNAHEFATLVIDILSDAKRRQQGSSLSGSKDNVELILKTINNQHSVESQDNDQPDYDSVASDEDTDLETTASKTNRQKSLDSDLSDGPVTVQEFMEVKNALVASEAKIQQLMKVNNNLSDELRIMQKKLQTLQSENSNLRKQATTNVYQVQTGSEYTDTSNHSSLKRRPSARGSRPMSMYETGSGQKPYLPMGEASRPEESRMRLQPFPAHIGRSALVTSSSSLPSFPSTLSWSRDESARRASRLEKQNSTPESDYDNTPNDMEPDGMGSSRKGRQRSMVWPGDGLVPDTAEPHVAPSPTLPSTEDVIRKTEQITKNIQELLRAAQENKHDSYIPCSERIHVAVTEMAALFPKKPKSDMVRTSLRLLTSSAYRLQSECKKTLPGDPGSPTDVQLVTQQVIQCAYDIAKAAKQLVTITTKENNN
# UniProt P57678: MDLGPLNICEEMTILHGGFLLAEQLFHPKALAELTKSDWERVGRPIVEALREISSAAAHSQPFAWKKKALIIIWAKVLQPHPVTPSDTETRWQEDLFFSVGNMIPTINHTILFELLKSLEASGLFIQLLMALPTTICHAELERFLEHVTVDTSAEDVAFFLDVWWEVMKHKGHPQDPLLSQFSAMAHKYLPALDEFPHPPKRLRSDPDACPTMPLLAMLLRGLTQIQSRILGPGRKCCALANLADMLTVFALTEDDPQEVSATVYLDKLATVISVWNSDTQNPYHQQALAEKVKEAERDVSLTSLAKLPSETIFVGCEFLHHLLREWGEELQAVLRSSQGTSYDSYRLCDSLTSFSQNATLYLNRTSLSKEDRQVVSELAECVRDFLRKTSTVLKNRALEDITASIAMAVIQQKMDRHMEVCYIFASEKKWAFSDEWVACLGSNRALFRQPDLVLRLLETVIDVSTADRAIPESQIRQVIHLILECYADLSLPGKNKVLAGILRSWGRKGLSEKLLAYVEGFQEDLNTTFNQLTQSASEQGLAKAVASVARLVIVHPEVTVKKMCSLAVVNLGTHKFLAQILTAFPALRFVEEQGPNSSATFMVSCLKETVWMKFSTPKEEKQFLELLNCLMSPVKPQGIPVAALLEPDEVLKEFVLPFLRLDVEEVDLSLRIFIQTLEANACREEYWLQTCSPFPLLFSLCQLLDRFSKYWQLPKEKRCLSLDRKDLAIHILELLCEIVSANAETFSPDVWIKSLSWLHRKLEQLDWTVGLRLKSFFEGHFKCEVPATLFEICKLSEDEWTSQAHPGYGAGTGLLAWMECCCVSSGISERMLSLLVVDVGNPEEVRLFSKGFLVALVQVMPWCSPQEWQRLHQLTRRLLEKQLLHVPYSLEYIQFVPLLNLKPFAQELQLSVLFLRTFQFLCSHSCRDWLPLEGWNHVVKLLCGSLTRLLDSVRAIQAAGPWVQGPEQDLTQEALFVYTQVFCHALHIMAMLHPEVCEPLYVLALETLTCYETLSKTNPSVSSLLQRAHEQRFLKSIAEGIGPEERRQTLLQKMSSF
# UniProt Q8N2G8: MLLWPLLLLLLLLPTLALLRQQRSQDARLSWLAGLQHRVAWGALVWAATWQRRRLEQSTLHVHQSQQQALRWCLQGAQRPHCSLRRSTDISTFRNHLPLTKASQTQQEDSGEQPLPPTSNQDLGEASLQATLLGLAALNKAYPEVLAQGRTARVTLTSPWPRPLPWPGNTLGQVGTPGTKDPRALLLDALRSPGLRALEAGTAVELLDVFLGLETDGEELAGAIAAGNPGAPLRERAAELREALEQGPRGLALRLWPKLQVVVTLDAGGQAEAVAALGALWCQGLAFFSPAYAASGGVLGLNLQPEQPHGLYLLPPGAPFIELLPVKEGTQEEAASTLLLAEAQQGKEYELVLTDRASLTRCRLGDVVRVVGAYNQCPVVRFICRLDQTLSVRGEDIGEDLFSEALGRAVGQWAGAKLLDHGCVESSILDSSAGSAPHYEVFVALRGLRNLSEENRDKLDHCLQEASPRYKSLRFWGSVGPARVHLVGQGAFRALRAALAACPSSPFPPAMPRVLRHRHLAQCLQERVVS
# UniProt Q06210: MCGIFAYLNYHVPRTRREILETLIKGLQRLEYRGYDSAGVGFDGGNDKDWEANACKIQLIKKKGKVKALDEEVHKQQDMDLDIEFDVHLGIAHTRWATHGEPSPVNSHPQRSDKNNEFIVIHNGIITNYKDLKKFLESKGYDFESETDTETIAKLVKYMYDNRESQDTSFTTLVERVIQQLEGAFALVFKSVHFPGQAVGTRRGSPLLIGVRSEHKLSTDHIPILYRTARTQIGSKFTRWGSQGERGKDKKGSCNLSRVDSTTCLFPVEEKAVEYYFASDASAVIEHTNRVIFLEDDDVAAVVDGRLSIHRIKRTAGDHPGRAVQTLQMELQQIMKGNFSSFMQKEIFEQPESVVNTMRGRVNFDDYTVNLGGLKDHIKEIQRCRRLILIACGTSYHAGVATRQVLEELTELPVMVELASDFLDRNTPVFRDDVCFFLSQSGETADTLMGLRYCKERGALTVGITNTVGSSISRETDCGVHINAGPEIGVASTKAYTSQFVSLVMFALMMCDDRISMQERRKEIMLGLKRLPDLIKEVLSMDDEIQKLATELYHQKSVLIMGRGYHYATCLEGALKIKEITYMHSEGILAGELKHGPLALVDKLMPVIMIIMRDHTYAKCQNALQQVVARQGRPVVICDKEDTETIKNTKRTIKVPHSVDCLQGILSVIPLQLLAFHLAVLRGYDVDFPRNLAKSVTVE
# UniProt Q14C86: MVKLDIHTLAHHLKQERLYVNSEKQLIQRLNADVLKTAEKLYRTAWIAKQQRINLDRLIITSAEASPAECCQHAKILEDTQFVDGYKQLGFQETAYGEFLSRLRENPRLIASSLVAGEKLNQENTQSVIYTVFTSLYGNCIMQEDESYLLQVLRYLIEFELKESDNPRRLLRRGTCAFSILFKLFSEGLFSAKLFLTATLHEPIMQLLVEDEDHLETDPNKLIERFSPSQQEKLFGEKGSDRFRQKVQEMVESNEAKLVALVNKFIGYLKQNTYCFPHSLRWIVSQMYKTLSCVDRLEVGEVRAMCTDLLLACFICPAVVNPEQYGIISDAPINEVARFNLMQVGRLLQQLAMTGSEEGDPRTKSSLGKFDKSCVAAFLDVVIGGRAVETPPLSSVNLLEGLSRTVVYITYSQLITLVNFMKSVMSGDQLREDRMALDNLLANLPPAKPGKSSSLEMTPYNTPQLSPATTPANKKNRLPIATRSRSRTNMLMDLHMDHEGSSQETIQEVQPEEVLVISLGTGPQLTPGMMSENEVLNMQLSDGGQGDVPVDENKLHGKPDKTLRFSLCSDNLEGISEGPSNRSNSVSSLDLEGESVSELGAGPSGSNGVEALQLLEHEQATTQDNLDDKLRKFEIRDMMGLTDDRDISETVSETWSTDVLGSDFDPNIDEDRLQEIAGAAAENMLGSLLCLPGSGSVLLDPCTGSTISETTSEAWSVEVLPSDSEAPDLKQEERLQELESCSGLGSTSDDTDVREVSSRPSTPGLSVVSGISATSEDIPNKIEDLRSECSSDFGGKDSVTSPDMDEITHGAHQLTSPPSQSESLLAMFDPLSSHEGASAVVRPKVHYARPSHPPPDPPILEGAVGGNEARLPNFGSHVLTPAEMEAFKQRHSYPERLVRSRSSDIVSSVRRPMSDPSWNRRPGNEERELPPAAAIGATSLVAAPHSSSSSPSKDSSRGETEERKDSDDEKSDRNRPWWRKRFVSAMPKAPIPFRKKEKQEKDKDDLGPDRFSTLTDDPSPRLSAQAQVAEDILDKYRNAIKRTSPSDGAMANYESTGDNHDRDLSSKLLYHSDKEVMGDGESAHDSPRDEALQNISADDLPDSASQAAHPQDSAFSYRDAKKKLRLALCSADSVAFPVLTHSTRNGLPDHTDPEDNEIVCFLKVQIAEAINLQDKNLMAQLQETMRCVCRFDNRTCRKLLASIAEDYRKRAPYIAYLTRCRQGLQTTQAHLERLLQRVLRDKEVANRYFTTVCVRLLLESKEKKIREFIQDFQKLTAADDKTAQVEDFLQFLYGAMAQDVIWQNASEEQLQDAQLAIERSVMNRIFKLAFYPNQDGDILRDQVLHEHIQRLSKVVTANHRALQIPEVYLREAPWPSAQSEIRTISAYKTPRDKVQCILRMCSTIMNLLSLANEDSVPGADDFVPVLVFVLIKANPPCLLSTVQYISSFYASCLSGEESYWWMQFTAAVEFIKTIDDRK
# UniProt Q9Y2X7: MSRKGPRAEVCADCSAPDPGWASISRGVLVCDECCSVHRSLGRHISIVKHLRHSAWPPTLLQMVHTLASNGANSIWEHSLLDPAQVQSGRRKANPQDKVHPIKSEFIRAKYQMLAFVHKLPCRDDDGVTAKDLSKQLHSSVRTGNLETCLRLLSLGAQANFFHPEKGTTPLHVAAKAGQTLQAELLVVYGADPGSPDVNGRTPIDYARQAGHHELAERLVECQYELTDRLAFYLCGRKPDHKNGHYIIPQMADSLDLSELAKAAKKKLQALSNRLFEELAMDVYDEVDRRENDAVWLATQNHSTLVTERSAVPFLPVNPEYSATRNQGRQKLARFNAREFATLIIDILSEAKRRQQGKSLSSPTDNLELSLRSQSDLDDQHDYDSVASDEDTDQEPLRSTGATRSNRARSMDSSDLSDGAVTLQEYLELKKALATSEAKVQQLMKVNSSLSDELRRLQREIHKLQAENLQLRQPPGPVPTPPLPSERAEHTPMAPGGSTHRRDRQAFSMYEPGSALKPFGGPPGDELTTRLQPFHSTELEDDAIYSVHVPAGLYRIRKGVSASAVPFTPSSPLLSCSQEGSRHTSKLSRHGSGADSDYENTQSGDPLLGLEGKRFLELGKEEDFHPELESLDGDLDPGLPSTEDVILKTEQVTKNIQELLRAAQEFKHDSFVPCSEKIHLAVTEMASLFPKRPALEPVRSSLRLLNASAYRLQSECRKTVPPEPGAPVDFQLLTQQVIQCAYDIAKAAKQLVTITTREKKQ
# UniProt O75600: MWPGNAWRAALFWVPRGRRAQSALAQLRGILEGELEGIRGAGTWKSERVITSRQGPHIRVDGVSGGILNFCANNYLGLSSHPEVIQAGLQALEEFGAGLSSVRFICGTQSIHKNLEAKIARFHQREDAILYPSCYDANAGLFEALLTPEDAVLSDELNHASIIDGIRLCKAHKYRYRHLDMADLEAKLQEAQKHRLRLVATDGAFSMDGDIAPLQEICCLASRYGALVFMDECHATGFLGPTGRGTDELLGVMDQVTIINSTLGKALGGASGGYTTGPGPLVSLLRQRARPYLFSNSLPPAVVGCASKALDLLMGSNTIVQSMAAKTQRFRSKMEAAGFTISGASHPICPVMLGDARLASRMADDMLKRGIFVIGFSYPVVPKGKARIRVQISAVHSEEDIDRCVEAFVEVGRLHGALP
# This is one part of the list.
# Compound: Cc1cc(ccc1-c1ccccc1)C(=O)N1CCCN(CC1)C(=O)CCl [compound 10]
# Experiment: probe-labelled cysteine peptide fold change vs DMSO (competition) (log2 fold change); higher = less target engagement (more negative = stronger competition)
# Conditions: THP-1, incubation time: 4 h
# 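Also: competitive profiling in live THP-1 cells: cysteine peptides tagged with an iodoacetamide desthiobiotin (IA-DTB) probe, intensity after compound treatment relative to DMSO-treated cells.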
Target,probe-labelled cysteine peptide fold change (10 µM),probe-labelled cysteine peptide fold change (50 µM)
GBE1_Q04446_309_NSADGLNMFDGTDSCYFHSGPR (UniProt Q04446),0.0575,0.333
GANAB_Q14697_41_TCEESSFCK (UniProt Q14697),0.0311,0.225
GARS_P41250_180_QHFIQEEQILEIDCTMLTPEPVLK (UniProt P41250),-0.21,0.122
GARS_P41250_231_KCSVEK (UniProt P41250),0.133,-0.461
GAPDH_P04406_152_IISNASCTTNCLAPLAK (UniProt P04406),0.0586,-0.65
GCC2_Q8IWJ2_257_ELMCQIEASAK (UniProt Q8IWJ2),-0.164,-0.256
GCC2_Q8IWJ2_48_CTELEK (UniProt Q8IWJ2),0.114,-0.0599
GBF1_Q92538_1414_DAAHITPDNFELCVK (UniProt Q92538),0.219,0.568
GEMIN5_Q8TEQ6_82_VSGFTFSHHPGQYNLCATSSDDGTVK (UniProt Q8TEQ6),0.193,0.148
GIT2_Q14161_35_GTFLCDECCSVHR (UniProt Q14161),0.0947,-0.152
GID8_Q9NWU2_139_ECLTEMER (UniProt Q9NWU2),-0.0332,0.281
GCN1_Q92616_2255_LIGNESKGEHVPGFCLPK (UniProt Q92616),-0.424,-0.728
GCN1_Q92616_1235_CGLALALNK (UniProt Q92616),-0.258,-0.353
GANC_Q8TET4_758_TFAHWEGGCTVK (UniProt Q8TET4),0.138,0.108
GEMIN4_P57678_210_SDPDACPTMPLLAMLLR (UniProt P57678),-0.127,-0.674
GIGYF1_O75420_177_CGFEEGGAGPR (UniProt O75420),-0.196,-0.348
GFER_P55789_165_ACFTQWLCHLHNEVNR (UniProt P55789),0.0703,0.073
GCC2_Q8IWJ2_1061_NSTLQCETINSDNEDLLAR (UniProt Q8IWJ2),-0.0199,-0.302
GK_P32189_289+293_NTYGTGCFLLCNTGHK (UniProt P32189),0.0602,-0.0301
GCLM_P48507_194_PNSNQVNLASCCVMPPDLTAFAK (UniProt P48507),0.0384,-0.0543
GIPC3_Q8TF64_152+168_IEAVCVGDSIEAINDHSIVGCR (UniProt Q8TF64),-0.127,-0.181

Target,probe-labelled cysteine peptide fold change (10 µM),probe-labelled cysteine peptide fold change (50 µM)
GATB_O75879_228_AGVGLLEVVLEPDMSCGEEAATAVR (UniProt O75879),-0.0137,-0.148
GALNT1_Q10472_523_LTLQHVNSNQCLDK (UniProt Q10472),-0.174,0.0343
GDI1_P31150_282_QLICDPSYIPDR (UniProt P31150),0.0641,-0.205
GIMAP8_Q8ND71_214_FQDCVNEAASQEGDKPQGPR (UniProt Q8ND71),-0.292,-0.319
GFM2_Q969S9_248_LLWNCNSNDGK (UniProt Q969S9),-0.353,-0.937
GCN1_Q92616_2015_ALCDPLEEVR (UniProt Q92616),-0.0318,0.0318
GHDC_Q8N2G8_73_WCLQGAQRPHCSLR (UniProt Q8N2G8),-0.0806,-0.19
GATD1_Q8NB37_179_DSGACFSASEPDAVHVVLDR (UniProt Q8NB37),-0.357,-0.147
GIT2_Q14161_34+35_GTFLCDECCSVHR (UniProt Q14161),-0.0885,0.0411
GATM_P50440_407+410_NANSLGGGFHCWTCDVR (UniProt P50440),-0.0564,-0.214
GFPT1_Q06210_435_DDVCFFLSQSGETADTLMGLR (UniProt Q06210),0.346,0.332
GHDC_Q8N2G8_502_AALAACPSSPFPPAMPR (UniProt Q8N2G8),-0.421,-0.795
GANAB_Q14697_423_WNYRDEADVLEVDQGFDDHNLPCDVIWLDIEHADGKR (UniProt Q14697),0.00503,0.0629
GATD1_Q8NB37_216_HLVTGQNASSTVPAVQNLLFLCGSR (UniProt Q8NB37),0.175,0.169
GEMIN4_P57678_210_LRSDPDACPTMPLLAMLLR (UniProt P57678),-0.401,-0.547
GAPVD1_Q14C86_741_LQELESCSGLGSTSDDTDVR (UniProt Q14C86),0.0834,0.0774
GIT1_Q9Y2X7_31_GVLVCDECCSVHR (UniProt Q9Y2X7),0.157,0.129
GFM2_Q969S9_406_IYSGTIKPQLAIHNINGNCTER (UniProt Q969S9),-0.332,-0.12
GDAP1_Q8TB36_51_CEEHDVSLPLSEHNEPWFMR (UniProt Q8TB36),0.0603,0.173
GART_P22102_62_ISNTAISISDHTALAQFCK (UniProt P22102),0.426,0.11
GCN1_Q92616_932_LLKPECVLDK (UniProt Q92616),-0.47,-0.11

Target,probe-labelled cysteine peptide fold change (10 µM),probe-labelled cysteine peptide fold change (50 µM)
GBP5_Q96PP8_233_CFIFDLPAHQK (UniProt Q96PP8),-0.207,-0.285
GIT2_Q14161_31+35_GTFLCDECCSVHR (UniProt Q14161),-0.0726,0.00157
GFPT1_Q06210_392_LILIACGTSYHAGVATR (UniProt Q06210),0.0456,0.175
GEMIN2_O14893_264_DDERVPALNLLICLVSR (UniProt O14893),0.264,0.116
GEMIN5_Q8TEQ6_676_EEPLCNFR (UniProt Q8TEQ6),-0.223,-0.0118
GAR1_Q9NY12_86_VVLLGEFLHPCEDDIVCK (UniProt Q9NY12),0.118,0.342
GALM_Q96C23_38_VDIISWGCTITALEVK (UniProt Q96C23),-0.00191,0.0364
GALNT12_Q8IXK2_233_GDVLTFLDCHCECHEGWLEPLLQR (UniProt Q8IXK2),0.185,-0.217
GANAB_Q14697_423_DEADVLEVDQGFDDHNLPCDVIWLDIEHADGK (UniProt Q14697),0.0435,0.597
GIT2_Q14161_11+14_SSEVCADCSGPDPSWASVNR (UniProt Q14161),0.152,-0.129
GK_P32189_421_DCGIPLSHLQVDGGMTSNK (UniProt P32189),0.0407,0.243
GART_P22102_134_AFTKPEEACSFILSADFPALVVK (UniProt P22102),0.298,0.0386
GALNT12_Q8IXK2_231+233_GDVLTFLDCHCECHEGWLEPLLQR (UniProt Q8IXK2),-0.113,-0.133
GANAB_Q14697_423_WNYRDEADVLEVDQGFDDHNLPCDVIWLDIEHADGK (UniProt Q14697),-0.0212,0.454
GATD1_Q8NB37_122_ILQHFHSESKPICAVGHGVAALCCATNEDR (UniProt Q8NB37),0.0213,-0.0492
GIT1_Q9Y2X7_35_GVLVCDECCSVHR (UniProt Q9Y2X7),0.142,0.193
GIT2_Q14161_672_HDSYIPCSER (UniProt Q14161),0.109,0.144
GART_P22102_941_GSNAHEQALETGVTVTGCTVHFVAEDVDAGQIILQEAVPVKR (UniProt P22102),-0.0235,-0.0732
GALT_P07902_180_GAMMGCSNPHPHCQVWASSFLPDIAQR (UniProt P07902),-0.299,-0.506
GK_P32189_67_EILHSVYECIEK (UniProt P32189),0.245,0.245
GCAT_O75600_349_MEAAGFTISGASHPICPVMLGDAR (UniProt O75600),-0.221,-0.0123

Target,probe-labelled cysteine peptide fold change (10 µM),probe-labelled cysteine peptide fold change (50 µM)
GATD1_Q8NB37_94_YHALLIPSCPGALTDLASSGSLAR (UniProt Q8NB37),0.0159,-0.00276
GEMIN5_Q8TEQ6_1477_SHFPGCLAQEMQQQAQELLQK (UniProt Q8TEQ6),0.019,0.0181
GAMT_Q14353_169_LLKPGGVLTYCNLTSWGELMK (UniProt Q14353),0.0267,0.321
GARS_P41250_442_QHMENEMAHYACDCWDAESK (UniProt P41250),0.132,0.0951
GIMAP1_Q8WWP7_181_ELVAECGGR (UniProt Q8WWP7),-0.196,-0.0158
GAPVD1_Q14C86_1160_NGLPDHTDPEDNEIVCFLK (UniProt Q14C86),-0.115,-0.25
GIPC1_O14908_100_LPTAEVMFCTLNTHK (UniProt O14908),0.0302,0.263
GCAT_O75600_106_FICGTQSIHK (UniProt O75600),0.153,-0.126
GART_P22102_93_SAGVQCFGPTAEAAQLESSKR (UniProt P22102),-0.0118,-0.205
GCN1_Q92616_648_VLQEALCVISGVPGLK (UniProt Q92616),0.128,-0.0828
GEN1_Q17RS7_634_SEVESELSAIPDGFENIPEQLSCESER (UniProt Q17RS7),-0.435,-0.524
GDAP2_Q9NXN4_348_ALYQTGVDNCGR (UniProt Q9NXN4),-0.138,-0.0533
GATAD1_Q8WUU5_12_PLGLKPTCSVCK (UniProt Q8WUU5),0.113,-0.0989
GART_P22102_298_FGDPECQVILPLLK (UniProt P22102),0.272,-0.00458
GARS_P41250_466+471_SCYDLSCHAR (UniProt P41250),0.126,-0.411
GGNBP2_Q9H3C7_586_DTHPESCCSSEK (UniProt Q9H3C7),-0.226,-0.298
GANAB_Q14697_822_SSECMKDDPITLFVALSPQGTAQGELFLDDGHTFNYQTR (UniProt Q14697),0.0598,0.0773
GEMIN2_O14893_264_LLVDSKDDERVPALNLLICLVSR (UniProt O14893),0.201,-0.54
GDAP2_Q9NXN4_148_TAAESSLYSCYR (UniProt Q9NXN4),-0.0153,0.00868
